According to paper PMC7346058:
These are yes or no findings as the source states them, for the method shown. In cells and extracts the contact can be indirect. Some binding calls cover weakened binding; strength is not graded here.

The chains behind the UniProt entries cited, without tags or fusion partners.
UniProt Q99459: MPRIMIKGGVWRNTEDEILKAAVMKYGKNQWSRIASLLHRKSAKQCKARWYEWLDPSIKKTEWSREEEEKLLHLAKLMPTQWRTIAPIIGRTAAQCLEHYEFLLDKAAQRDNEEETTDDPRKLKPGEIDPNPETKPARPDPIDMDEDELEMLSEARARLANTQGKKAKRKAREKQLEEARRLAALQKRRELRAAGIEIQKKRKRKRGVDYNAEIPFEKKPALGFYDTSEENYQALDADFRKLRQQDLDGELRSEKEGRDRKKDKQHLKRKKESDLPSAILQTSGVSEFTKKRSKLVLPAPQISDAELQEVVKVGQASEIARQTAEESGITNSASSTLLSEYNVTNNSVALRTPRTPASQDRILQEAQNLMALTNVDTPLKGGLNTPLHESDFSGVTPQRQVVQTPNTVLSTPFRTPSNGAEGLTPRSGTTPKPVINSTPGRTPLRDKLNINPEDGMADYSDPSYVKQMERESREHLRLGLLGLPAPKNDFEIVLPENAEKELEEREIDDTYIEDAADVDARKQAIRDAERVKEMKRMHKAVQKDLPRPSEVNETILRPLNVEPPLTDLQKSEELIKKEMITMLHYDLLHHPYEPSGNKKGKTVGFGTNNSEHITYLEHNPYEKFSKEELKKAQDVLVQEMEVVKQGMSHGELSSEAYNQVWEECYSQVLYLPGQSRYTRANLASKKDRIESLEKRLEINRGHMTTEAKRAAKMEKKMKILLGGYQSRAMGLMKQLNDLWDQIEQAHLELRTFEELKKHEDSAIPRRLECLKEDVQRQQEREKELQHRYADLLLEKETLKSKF

T1: annexin A7 (human (endogenous in multiple myeloma cells)) (UniProt P20073)
T1 sequence: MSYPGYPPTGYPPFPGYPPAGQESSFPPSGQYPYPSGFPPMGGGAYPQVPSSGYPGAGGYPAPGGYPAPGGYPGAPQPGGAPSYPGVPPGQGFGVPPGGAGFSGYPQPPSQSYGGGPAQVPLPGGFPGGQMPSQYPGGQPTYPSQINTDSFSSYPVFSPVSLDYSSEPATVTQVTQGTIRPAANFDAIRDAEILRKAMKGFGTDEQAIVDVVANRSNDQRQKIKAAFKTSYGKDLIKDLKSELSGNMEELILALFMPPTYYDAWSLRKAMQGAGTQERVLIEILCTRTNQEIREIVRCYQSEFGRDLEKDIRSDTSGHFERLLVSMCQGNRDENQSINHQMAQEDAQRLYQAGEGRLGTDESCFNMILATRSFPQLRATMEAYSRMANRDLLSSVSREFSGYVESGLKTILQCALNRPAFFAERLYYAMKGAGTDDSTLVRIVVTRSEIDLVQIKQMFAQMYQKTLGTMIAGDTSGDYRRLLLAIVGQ

B1: annexin A7 (protein, UniProt P20073 1-488)
chain: MSYPGYPPTGYPPFPGYPPAGQESSFPPSGQYPYPSGFPPMGGGAYPQVPSSGYPGAGGYPAPGGYPAPGGYPGAPQPGGAPSYPGVPPGQGFGVPPGGAGFSGYPQPPSQSYGGGPAQVPLPGGFPGGQMPSQYPGGQPTYPSQINTDSFSSYPVFSPVSLDYSSEPATVTQVTQGTIRPAANFDAIRDAEILRKAMKGFGTDEQAIVDVVANRSNDQRQKIKAAFKTSYGKDLIKDLKSELSGNMEELILALFMPPTYYDAWSLRKAMQGAGTQERVLIEILCTRTNQEIREIVRCYQSEFGRDLEKDIRSDTSGHFERLLVSMCQGNRDENQSINHQMAQEDAQRLYQAGEGRLGTDESCFNMILATRSFPQLRATMEAYSRMANRDLLSSVSREFSGYVESGLKTILQCALNRPAFFAERLYYAMKGAGTDDSTLVRIVVTRSEIDLVQIKQMFAQMYQKTLGTMIAGDTSGDYRRLLLAIVGQ

How the values were obtained:
[1] = target: T1, annexin A7 (human (endogenous in multiple myeloma cells)); test: co-IP; whole cell extract of multiple myeloma cells in RIPA lysate with protease inhibitor; rabbit anti-ANXA-7 or rabbit anti-CDC5L antibody 4 h at 4 °C, protein A/G agarose beads 1 h at 4 °C; rabbit IgG as control; Western blot
[2] = target: cell division cycle 5-like (human (endogenous in multiple myeloma cells)) (UniProt Q99459); test: as above

Row | Molecule | binding [1] | binding [2]
1 | cell division cycle 5-like (from UniProt Q99459 1-802) | binds | 
2 | B1 |  | binds
